From patent publication US20220177527A1
No constants are given. Whether binding was seen depends on the method and setting. In cells and extracts the contact can be indirect. Some results given as binding are weak or reduced against the parent protein; the word gives no strength. Sequences can lack the tags named with a protein.

Chains of the proteins cited; added tags and fusions are not shown.
UniProt Q9UK41: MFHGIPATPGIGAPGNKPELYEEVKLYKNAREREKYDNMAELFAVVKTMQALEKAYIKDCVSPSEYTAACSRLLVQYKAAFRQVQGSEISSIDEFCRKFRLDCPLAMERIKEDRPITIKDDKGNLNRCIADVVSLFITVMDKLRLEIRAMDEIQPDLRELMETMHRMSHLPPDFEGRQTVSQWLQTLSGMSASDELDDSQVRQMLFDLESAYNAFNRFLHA

What was measured:
[1] = molecular target: VPS28-Myc (VPS28 transcript NM_016208.3 fused to a Myc tag at the C-terminus) (UniProt Q9UK41); assay: co-immunoprecipitation, HEK293T lysate, Western blot
[2] = molecular target: VPS28-Myc (VPS28 transcript NM_016208.3 fused to a Myc tag at the C-terminus) (UniProt Q9UK41); assay: co-immunoprecipitation with anti-HA or anti-Myc antibodies, HEK293T lysate, Western blot

B1: HA-WT-UBAP1 (wild-type Ubiquitin Associated Protein 1, transcript 1 NM_016525.4, fused with a 3x-HA tag at the N-terminus) (protein, not shown: small tags and cut ends)
chain: MASKKLGADFHGTFSYLDDVPFKTGDKFKTPAKVGLPIGFSLPDCLQVVREVQYDFSLEKKTIEWAEEIKKIEEAEREAERKIAEAEAKVNSKSGPEGDSKMSFSKTHSTATMPPPINPILASLQHNSILTPTRVSSSATKQKVLSPPHIKADFNLADFECEEDPFDNLELKTIDEKEELRNILVGTTGPIMAQLLDNNLPRGGSGSVLQDEEVLASLERATLDFKPLHKPNGFITLPQLGNCEKMSLSSKVSLPPIPAVSNIKSLSFPKLDSDDSNQKTAKLASTFHSTSCLRNGTFQNSLKPSTQSSASELNGHHTLGLSALNLDSGTEMPALTSSQMPSLSVLSVCTEESSPPNTGPTVTPPNFSVSQVPNMPSCPQAYSELQMLSPSERQCVETVVNMGYSYECVLRAMKKKGENIEQILDYLFAHGQLCEKGFDPLLVEEALEMHQCSEEKMMEFLQLMSKFKEMGFELKDIKEVLLLHNNDQDNALEDLMARAGAS
[1]
  binding: binds
[2]
  binding: binds
